No constants are given. Whether binding was seen depends on the method and setting. Some results given as binding are weak or reduced against the parent protein; the word gives no strength.
T1: human CD40L (hCD40L antigen) (human, UniProt P29965 113-261, limits assumed)
T1 sequence (looked up): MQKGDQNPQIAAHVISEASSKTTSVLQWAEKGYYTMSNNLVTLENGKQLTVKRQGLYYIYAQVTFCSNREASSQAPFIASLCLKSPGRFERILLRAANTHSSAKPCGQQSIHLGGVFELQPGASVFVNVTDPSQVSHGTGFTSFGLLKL

B1: clone 305 (designed binder)
chain: MIPGGLSEAKPATPEIQEIVDKVKPQLEEKTGETYGKLEAVQYKTQVVESYAAIFWGGTNYYIKVRAGDNKYMHLKVFKSLWGEIQHWRQEDLVLTGYQVDKNKDDELTGF
B2: clone 306 (designed binder)
chain: MIPGGLSEAKPATPEIQEIVDKVKPQLEEKTGETYGKLEAVQYKTQVVRVWPWTWDRGTNYYIKVRAGDNKYMHLKVFKSLEQWLPNPYFEDLVLTGYQVDKNKDDELTGF
B3: clone 307 (designed binder)
chain: MIPGGLSEAKPATPEIQEIVDKVKPQLEEKTGETYGKLEAVQYKTQVVQVKKWWEYFVTNYYIKVRAGDNKYMHLKVFKSLQLLSHQWTEEDLVLTGYQVDKNKDDELTGF
B4: clone 234 (designed binder)
chain: MIPGGLSEAKPATPEIQEIVDKVKPQLEEKTGETYGKLEAVQYKTQVDAGTNYYIKVRAGDNKYMHLKVFKSLYFYRHWEDREDLVLTGYQVDKNKDDELTGF
B5: clone 308 (designed binder)
chain: MIPGGLSEAKPATPEIQEIVDKVKPQLEEKTGETYGKLEAVQYKTQVVIGQISEQQWGTNYYIKVRAGDNKYMHLKVFKSLHRYWTRDVTEDLVLTGYQVDKNKDDELTGF
B6: clone 309 (designed binder)
chain: MIPGGLSEAKPATPEIQEIVDKVKPQLEEKTGETYGKLEAVQYKTQVVAFHKLGWILGTNYYIKVRAGDNKYMHLKVFKSLGDESHKWHKEDLVLTGYQVDKNKDDELTGF
B7: clone 310 (designed binder)
chain: MIPGGLSEAKPATPEIQEIVDKVKPQLEEKTGETYGKLEAVQYKTQVVFKKWWWKYKGTNYYIKVRAGDNKYMHLKVFKSLRVDEHYIQFEDLVLTGYQVDKNKDDELTGF
B8: clone 311 (designed binder)
chain: MIPGGLSEAKPATPEIQEIVDKVKPQLEEKTGETYGKLEAVQYKTQVVASQRLWIIYGTNYYIKVRAGDNKYMHLKVFKSLSDWRHHGGWEDLVLTGYQVDKNKDDELTGF
B9: clone 312 (designed binder)
chain: MIPGGLSEAKPATPEIQEIVDKVKPQLEEKTGETYGKLEAVQYKTQVVQRETHILWSGTNYYIKVRAGDNKYMHLKVFKSLWFDNLHNNFEDLVLTGYQVDKNKDDELTGF
B10: clone 313 (designed binder)
chain: MIPGGLSEAKPATPEIQEIVDKVKPQLEEKTGETYGKLEAVQYKTQVVGQYWFWAPGGTNYYIKVRAGDNKYMHLKVFKSLPSSGGGPKWEDLVLTGYQVDKNKDDELTGF
B11: clone 314 (designed binder)
chain: MIPGGLSEAKPATPEIQEIVDKVKPQLEEKTGETYGKLEAVQYKTQVVRDWAYYIYFGTNYYIKVRAGDNKYMHLKVFKSLRSDTLHYWNEDLVLTGYQVDKNKDDELTGF
B12: clone 315 (designed binder)
chain: MIPGGLSEAKPATPEIQEIVDKVKPQLEEKTGETYGKLEAVQYKTQVVIGYKLNYIWGTNYYIKVRAGDNKYMHLKVFKSLIQYRWQDRVEDLVLTGYQVDKNKDDELTGF
B13: clone 316 (designed binder)
chain: MIPGGLSEAKPATPEIQEIVDKVKPQLEEKTGETYGKLEAVQYKTQVVVSLTEQRWKGTNYYIKVRAGDNKYMHLKVFKSLFQPIKLANAEDLVLTGYQVDKNKDDELTGF
B14: clone 317 (designed binder)
chain: MIPGGLSEAKPATPEIQEIVDKVKPQLEEKTGETYGKLEAVQYKTQVVWVSQQHYSHGTNYYIKVRAGDNKYMHLKVFKSLFAFRKYEDREDLVLTGYQVDKNKDDELTGF
B15: clone 235 (designed binder)
chain: MIPGGLSEAKPATPEIQEIVDKVKPQLEEKTGETYGKLEAVQYKTQVVSWVKPDNELGTNYYIKVRAGDNKYMHLKVFKSLWQVHDKQWLEDLVLTGYQVDKNKDDELTGF
B16: clone 318 (designed binder)
chain: MIPGGLSEAKPATPEIQEIVDKVKPQLEEKTGETYGKLEAVQYKTQVVDDDNQHYGLGTNYYIKVRAGDNKYMHLKVFKSLLHNWWKGNWEDLVLTGYQVDKNKDDELTGF
B17: clone 319 (designed binder)
chain: MIPGGLSEAKPATPEIQEIVDKVKPQLEEKTGETYGKLEAVQYKTQVVPTRWISIYWGTNYYIKVRAGDNKYMHLKVFKSLLNRYYHASIEDLVLTGYQVDKNKDDELTGF
B18: clone 320 (designed binder)
chain: MIPGGLSEAKPATPEIQEIVDKVKPQLEEKTGETYGKLEAVQYKTQVVTAFAPNKASGTNYYIKVRAGDNKYMHLKVFKSLRYWAFRYLWEDLVLTGYQVDKNKDDELTGF
B19: clone 321 (designed binder)
chain: MIPGGLSEAKPATPEIQEIVDKVKPQLEEKTGETYGKLEAVQYKTQVVHYTDFKWHKGTNYYIKVRAGDNKYMHLKVFKSLPFWANEHGWEDLVLTGYQVDKNKDDELTGF
B20: clone 322 (designed binder)
chain: MIPGGLSEAKPATPEIQEIVDKVKPQLEEKTGETYGKLEAVQYKTQVVNKFWSWAPGGTNYYIKVRAGDNKYMHLKVFKSLADSGFNATPEDLVLTGYQVDKNKDDELTGF
B21: clone 323 (designed binder)
chain: MIPGGLSEAKPATPEIQEIVDKVKPQLEEKTGETYGKLEAVQYKTQVVELDEPAWDWGTNYYIKVRAGDNKYMHLKVFKSLRQHKKPHPNEDLVLTGYQVDKNKDDELTGF
B22: clone 324 (designed binder)
chain: MIPGGLSEAKPATPEIQEIVDKVKPQLEEKTGETYGKLEAVQYKTQVVHEKWGFWELGTNYYIKVRAGDNKYMHLKVFKSLHSHRFHEAHEDLVLTGYQVDKNKDDELTGF
B23: clone 325 (designed binder)
chain: MIPGGLSEAKPATPEIQEIVDKVKPQLEEKTGETYGKLEAVQYKTQVVVATADLIKAGTNYYIKVRAGDNKYMHLKVFKSLPWHYPPNKWEDLVLTGYQVDKNKDDELTGF
B24: clone 326 (designed binder)
chain: MIPGGLSEAKPATPEIQEIVDKVKPQLEEKTGETYGKLEAVQYKTQVVYYKVISWWHGTNYYIKVRAGDNKYMHLKVFKSLYKTPFPQYTEDLVLTGYQVDKNKDDELTGF
B25: clone 327 (designed binder)
chain: MIPGGLSEAKPATPEIQEIVDKVKPQLEEKTGETYGKLEAVQYKTQVVHWHHYDNIIGTNYYIKVRAGDNKYMHLKVFKSLYQLVDLDLDEDLVLTGYQVDKNKDDELTGF
B26: clone-230 DT (designed binder)
chain: IPGGLSEAKPATPEIQEIVDKVKPQLEEKTGETYGKLEAVQYKTQVVHYYVHYNDQGTNYYIKVRAGDNKYMHLKVFKSLWGENLFAKWEDLVLTGYQVDKNKDDELTGFAEAAAKEAAAKEAAAKEAAAKEAAAKEAAAKMIPGGLSEAKPATPEIQEIVDKVKPQLEEKTGETYGKLEAVQYKTQVVHYYVHYNDQGTNYYIKVRAGDNKYMHLKVFKSLWGENLFAKWEDLVLTGYQVDKNKDDELTGFAEAAAKEAAAKEAAAKEAAAKEAAAKEAAAKMIPGGLSEAKPATPEIQEIVDKVKPQLEEKTGETYGKLEAVQYKTQVVHYYVHYNDQGTNYYIKVRAGDNKYMHLKVFKSLWGENLFAKWEDLVLTGYQVDKNKDDELTGF
B27: clone-230 DS (designed binder)
chain: IPGGLSEAKPATPEIQEIVDKVKPQLEEKTGETYGKLEAVQYKTQVVHYYVHYNDQGTNYYIKVRAGDNKYMHLKVFKSLWGENLFAKWEDLVLTGYQVDKNKDDELTGFAEAAAKEAAAKEAAAKEAAAKEAAAKEAAAKMIPGGLSEAKPATPEIQEIVDKVKPQLEEKTGETYGKLEAVQYKTQVVHYYVHYNDQGTNYYIKVRAGDNKYMHLKVFKSLWGENLFAKWEDLVLTGYQVDKNKDDELTGFAEAAAKEAAAKEAAAKEAAAKEAAAKEAAAKMIPGGLSEAKPATPEIQEIVDKVKPQLEEKTGETYGKLEAVQYKTQVVHYYVHYNDQGTNYYIKVRAGDNKYMHLKVFKSLWGENLFAKWEDLVLTGYQVDKNKDDELTGFAEAAAKEAAAKEAAAKEAAAKEAAAKEAAAKMIPGGLSEAKPATPEIQEIVDKVKPQLEEKTGETYGKLEAVQYKTQVVHYYVHYNDQGTNYYIKVRAGDNKYMHLKVFKSLWGENLFAKWEDLVLTGYQVDKNKDDELTGF

What follows are binders tested against T1, human CD40L (hCD40L antigen) (assay: ELISA, bacterial lysate on immobilized human CD40L, anti-Myc detection).

binding, binds:
B1
B2
B3
B4
B5
B6
B7
B8
B9
B10
B11
B12
B13
B14
B15
B16
B17
B18
B19
B20
B21
B22
B23
B24
B25

These binders were tested against T1, human CD40L (hCD40L antigen) (assay: competitive ELISA, hCD40L (1 nM) against coated rhCD40 Fc; percent inhibition in FIG. 10).

binding, binds:
B26
B27

From patent EP4477665A1 (AffyXell Therapeutics Co., Ltd., dated 2024)
